The other results are listed elsewhere or left out.
How the values were obtained:
Assay in all cases: log2 fold change, soluble protein after heating vs DMSO (PISA); higher = thermal stabilisation; K562 cells, 10 uM, 30 min; active = over 0.2 and 3.5 SD of the protein, either way, in both replicates (recomputed)
bafetinib = compound: Cc1ccc(NC(=O)c2ccc(CN3CC[C@H](N(C)C)C3)c(C(F)(F)F)c2)cc1Nc1nccc(-c2cncnc2)n1 [bafetinib]
Outline: (§1)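 For each measurement, 10 μM compound was applied for 30 min to K562 cells at 2×10^6 cells/mL. Aliquots were heated for 3 min across 48°C-58°C, pooled, and extracted in PBS with 0.5% NP-40 at 4°C; the supernatant after 21,000xg for 90 min was soluble protein. This was quantified by TMTpro 16plex LC-MS/MS with channel sums equalised, and thermal stability was reported relative to control samples from duplicates, on a log2 fold-change scale.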

Protein sequences, listed by entry. Tags and fused reporters are not part of them. Lines headed by an entry give the natural chain unless they say otherwise; changes in a name come on top.
UniProt O95747, whole entry, looked up: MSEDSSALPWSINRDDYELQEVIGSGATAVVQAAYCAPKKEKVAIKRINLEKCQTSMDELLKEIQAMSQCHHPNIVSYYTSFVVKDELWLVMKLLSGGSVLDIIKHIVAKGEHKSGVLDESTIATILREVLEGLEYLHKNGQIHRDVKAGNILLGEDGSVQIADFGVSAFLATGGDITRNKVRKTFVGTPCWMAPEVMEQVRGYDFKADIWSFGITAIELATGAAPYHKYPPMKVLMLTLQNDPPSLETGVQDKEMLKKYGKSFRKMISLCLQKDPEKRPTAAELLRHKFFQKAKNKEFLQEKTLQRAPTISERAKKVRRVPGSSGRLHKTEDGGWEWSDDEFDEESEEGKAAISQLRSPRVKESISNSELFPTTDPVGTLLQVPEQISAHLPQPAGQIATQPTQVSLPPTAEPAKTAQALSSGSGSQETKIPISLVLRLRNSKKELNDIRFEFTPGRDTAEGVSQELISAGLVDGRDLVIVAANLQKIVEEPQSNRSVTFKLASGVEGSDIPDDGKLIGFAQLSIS
UniProt Q96BN8, whole entry, looked up: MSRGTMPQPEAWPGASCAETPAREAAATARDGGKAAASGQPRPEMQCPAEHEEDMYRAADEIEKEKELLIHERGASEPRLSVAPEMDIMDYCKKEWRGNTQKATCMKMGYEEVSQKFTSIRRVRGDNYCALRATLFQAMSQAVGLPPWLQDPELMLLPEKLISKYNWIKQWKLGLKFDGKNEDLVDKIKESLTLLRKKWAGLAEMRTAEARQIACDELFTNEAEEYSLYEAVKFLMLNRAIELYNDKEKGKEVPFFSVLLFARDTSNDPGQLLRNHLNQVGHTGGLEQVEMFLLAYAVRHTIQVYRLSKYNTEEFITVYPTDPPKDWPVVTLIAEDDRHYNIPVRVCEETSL
UniProt O43929: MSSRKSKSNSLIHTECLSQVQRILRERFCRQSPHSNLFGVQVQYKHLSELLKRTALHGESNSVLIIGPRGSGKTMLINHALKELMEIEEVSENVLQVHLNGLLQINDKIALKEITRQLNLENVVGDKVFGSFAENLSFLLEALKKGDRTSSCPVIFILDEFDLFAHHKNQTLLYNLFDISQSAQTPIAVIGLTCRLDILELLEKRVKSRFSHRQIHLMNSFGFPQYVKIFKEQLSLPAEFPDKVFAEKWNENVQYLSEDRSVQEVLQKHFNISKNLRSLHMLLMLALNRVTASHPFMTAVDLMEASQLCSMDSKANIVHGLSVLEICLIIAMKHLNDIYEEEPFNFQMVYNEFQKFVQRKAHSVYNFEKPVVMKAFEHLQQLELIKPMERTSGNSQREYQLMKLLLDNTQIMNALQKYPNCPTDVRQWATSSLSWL
UniProt Q9Y6R0: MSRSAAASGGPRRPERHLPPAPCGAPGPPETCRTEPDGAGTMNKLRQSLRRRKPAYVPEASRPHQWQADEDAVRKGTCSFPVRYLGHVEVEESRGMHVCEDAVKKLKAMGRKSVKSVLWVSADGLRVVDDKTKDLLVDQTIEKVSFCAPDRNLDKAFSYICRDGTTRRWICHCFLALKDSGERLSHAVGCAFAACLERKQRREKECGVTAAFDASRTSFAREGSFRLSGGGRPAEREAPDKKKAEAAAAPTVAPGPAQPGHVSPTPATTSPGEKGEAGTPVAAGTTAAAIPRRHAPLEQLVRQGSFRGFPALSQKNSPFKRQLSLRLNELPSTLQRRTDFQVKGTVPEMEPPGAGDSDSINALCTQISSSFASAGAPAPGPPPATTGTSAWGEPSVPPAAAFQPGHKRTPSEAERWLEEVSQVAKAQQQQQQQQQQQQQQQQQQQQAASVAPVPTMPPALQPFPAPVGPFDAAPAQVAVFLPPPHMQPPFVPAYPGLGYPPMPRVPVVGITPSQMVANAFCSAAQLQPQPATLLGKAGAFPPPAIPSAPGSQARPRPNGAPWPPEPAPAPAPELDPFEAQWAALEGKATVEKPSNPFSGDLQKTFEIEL
UniProt Q9BVL2: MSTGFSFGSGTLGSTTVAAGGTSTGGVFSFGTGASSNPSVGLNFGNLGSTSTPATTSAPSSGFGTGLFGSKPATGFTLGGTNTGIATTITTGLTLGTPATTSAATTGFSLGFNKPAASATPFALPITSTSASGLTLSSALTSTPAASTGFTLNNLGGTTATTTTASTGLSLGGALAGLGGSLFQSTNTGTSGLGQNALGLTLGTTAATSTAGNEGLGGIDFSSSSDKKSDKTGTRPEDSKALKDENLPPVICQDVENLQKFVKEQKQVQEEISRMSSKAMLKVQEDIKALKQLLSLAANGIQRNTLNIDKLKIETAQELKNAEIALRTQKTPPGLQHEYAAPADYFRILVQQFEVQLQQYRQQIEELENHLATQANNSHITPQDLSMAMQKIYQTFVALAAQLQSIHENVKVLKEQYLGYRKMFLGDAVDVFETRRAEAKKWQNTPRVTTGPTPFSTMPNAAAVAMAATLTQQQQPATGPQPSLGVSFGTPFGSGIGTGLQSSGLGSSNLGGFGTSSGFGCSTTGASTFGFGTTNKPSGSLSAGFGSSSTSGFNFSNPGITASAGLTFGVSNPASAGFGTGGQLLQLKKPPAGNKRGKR
UniProt P07237: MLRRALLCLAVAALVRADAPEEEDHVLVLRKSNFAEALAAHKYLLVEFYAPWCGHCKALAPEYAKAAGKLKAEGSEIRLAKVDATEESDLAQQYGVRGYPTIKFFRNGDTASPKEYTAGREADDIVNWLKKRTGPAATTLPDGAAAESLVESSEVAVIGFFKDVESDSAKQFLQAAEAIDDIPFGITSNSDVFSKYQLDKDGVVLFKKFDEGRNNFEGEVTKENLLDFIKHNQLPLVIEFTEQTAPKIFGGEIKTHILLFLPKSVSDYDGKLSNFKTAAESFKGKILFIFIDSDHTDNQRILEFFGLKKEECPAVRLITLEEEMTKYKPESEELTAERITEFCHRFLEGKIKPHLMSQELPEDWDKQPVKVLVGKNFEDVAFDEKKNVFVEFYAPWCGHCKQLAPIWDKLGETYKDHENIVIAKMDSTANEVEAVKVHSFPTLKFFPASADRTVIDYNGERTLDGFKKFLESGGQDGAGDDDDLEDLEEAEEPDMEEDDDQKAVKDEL
UniProt Q9UQ80: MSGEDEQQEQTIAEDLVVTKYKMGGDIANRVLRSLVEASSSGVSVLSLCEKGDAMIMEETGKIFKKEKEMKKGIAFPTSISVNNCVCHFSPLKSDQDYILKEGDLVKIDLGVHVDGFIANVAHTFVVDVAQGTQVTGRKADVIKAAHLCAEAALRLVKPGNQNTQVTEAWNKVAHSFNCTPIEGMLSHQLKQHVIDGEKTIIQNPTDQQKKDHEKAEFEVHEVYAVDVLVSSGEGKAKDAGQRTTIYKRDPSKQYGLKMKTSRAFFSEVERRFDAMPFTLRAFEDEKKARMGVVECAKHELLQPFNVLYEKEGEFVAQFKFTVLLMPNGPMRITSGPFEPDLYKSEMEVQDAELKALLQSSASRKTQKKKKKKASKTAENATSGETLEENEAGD
UniProt P52948: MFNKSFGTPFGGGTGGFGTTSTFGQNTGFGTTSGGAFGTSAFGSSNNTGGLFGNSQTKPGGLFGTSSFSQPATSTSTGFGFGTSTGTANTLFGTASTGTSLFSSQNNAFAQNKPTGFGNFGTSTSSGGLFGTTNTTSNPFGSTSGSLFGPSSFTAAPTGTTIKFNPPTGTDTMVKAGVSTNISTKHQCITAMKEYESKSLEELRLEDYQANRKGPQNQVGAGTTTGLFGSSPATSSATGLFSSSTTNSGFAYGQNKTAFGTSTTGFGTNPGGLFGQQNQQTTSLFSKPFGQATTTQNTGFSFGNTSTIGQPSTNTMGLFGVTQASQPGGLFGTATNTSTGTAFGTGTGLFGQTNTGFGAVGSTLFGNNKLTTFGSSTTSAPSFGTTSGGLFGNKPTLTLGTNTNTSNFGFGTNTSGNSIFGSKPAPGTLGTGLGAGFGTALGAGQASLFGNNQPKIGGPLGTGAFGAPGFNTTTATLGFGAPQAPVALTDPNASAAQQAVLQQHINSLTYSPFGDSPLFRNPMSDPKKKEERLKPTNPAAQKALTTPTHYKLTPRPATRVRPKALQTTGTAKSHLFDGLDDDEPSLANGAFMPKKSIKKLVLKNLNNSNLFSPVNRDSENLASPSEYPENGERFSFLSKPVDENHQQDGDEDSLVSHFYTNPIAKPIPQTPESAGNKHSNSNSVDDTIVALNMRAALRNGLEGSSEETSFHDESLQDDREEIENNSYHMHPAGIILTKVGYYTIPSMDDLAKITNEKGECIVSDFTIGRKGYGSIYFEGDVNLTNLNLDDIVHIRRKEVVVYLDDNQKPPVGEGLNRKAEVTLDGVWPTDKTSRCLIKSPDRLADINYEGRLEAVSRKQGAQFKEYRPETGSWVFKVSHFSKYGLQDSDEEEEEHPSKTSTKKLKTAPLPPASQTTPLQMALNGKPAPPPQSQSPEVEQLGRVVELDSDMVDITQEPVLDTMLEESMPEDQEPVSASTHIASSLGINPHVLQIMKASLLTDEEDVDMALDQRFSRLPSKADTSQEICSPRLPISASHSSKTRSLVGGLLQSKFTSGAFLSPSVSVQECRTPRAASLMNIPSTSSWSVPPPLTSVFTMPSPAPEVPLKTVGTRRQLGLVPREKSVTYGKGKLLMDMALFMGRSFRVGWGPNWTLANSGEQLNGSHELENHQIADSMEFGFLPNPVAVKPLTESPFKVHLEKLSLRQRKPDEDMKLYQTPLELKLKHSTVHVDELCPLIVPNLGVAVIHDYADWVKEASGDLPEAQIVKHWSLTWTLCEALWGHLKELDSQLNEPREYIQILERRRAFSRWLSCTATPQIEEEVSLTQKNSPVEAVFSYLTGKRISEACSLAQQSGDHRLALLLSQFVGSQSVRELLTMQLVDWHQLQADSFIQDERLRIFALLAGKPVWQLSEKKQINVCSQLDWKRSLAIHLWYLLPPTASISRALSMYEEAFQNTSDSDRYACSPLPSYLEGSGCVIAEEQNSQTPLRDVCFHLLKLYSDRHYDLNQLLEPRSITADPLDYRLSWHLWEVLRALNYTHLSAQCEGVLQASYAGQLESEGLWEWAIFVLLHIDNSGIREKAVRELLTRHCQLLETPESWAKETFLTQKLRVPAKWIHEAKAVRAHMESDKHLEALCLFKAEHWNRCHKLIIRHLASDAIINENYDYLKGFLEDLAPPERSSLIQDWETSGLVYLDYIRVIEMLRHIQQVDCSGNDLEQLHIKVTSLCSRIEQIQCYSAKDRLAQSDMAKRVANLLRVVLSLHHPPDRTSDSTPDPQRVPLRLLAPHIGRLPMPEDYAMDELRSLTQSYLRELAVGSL
UniProt Q8TEA1: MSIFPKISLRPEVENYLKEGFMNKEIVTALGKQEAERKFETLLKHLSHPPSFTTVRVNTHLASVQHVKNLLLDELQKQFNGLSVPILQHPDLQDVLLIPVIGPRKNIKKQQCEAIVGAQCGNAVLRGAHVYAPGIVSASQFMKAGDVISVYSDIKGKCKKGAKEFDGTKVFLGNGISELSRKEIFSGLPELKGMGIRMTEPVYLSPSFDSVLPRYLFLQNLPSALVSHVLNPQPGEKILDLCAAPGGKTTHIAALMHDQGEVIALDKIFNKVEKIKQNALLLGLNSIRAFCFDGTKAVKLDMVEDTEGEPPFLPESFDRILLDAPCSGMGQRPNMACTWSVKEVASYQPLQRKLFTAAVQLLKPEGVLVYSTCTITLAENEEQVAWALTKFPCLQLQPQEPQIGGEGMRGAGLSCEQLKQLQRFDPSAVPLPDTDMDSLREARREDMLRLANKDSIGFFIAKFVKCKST
UniProt Q8N573: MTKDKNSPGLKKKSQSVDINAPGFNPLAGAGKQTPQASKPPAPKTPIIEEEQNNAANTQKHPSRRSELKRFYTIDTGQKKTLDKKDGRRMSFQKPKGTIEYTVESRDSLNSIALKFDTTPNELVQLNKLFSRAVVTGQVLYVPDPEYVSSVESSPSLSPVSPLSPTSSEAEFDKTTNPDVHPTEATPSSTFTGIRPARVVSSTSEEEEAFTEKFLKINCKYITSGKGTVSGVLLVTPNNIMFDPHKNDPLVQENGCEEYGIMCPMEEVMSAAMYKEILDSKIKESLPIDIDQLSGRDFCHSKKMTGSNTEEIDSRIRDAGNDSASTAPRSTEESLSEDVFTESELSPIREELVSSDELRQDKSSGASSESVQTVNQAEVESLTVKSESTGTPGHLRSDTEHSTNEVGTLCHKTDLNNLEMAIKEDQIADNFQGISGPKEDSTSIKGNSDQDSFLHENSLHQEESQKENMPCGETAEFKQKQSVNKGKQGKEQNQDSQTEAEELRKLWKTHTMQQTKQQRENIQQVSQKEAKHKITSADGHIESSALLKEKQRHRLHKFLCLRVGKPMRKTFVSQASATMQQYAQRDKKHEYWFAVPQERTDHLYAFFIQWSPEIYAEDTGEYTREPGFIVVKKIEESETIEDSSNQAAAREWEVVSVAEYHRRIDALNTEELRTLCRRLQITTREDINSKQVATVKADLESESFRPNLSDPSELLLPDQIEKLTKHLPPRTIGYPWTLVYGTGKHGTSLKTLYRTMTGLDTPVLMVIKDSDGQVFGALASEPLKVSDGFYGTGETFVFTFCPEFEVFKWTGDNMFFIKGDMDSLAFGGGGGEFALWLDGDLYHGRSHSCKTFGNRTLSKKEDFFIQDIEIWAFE

[1] = compound: Cc1cccc(CC(=O)N2CCc3c2ccc(-c2cn(C)c4ncnc(N)c24)c3F)n1
Outline: as §1

nilotinib = compound: Cc1cn(-c2cc(NC(=O)c3ccc(C)c(Nc4nccc(-c5cccnc5)n4)c3)cc(C(F)(F)F)c2)cn1 [nilotinib]
Outline: as §1

[2] = compound: Cc1nc(Nc2n[nH]c3c2CN(C(=O)N[C@H](CN(C)C)c2ccccc2)C3(C)C)c2sccc2n1
Outline: as §1

dasatinib = compound: Cc1nc(Nc2ncc(C(=O)Nc3c(C)cccc3Cl)s2)cc(N2CCN(CCO)CC2)n1 [dasatinib]
Outline: as §1

[3] = compound: Cc1ncc(-c2ccnc(Nc3ccc(S(C)(=O)=O)cc3)n2)n1C(C)C
Outline: as §1

[4] = compound: Cn1cc(-c2ccc3c(c2)CCN3C(=O)Cc2cccc(C(F)(F)F)c2)c2c(N)ncnc21
Outline: as §1

[5] = compound: Cn1cc(-c2ccc3nnc(C(F)(F)c4ccc5ncccc5c4)n3n2)cn1
Outline: as §1

tipifarnib = compound: Cn1cncc1[C@@](N)(c1ccc(Cl)cc1)c1ccc2c(c1)c(-c1cccc(Cl)c1)cc(=O)n2C [tipifarnib]
Outline: as §1

mubritinib = compound: FC(F)(F)c1ccc(/C=C/c2nc(COc3ccc(CCCCn4ccnn4)cc3)co2)cc1 [mubritinib]
Outline: as §1

Measured: log2 fold change

OXSR1 (UniProt O95747)
inactive: bafetinib -0.014 | [1] -0.012 | nilotinib -0.083 | [2] -0.029 | dasatinib -0.179 | [3] 0.031 | [4] 0.038 | [5] 0.005 | tipifarnib -0.117 | mubritinib -0.05

OTULIN (UniProt Q96BN8)
inactive: bafetinib -0.039 | [1] 0.066 | nilotinib -0.091 | [2] -0.124 | dasatinib -0.169 | [3] 0.033 | [4] -0.051 | [5] 0.235 | tipifarnib -0.081 | mubritinib 0.152

ORC4 (UniProt O43929)
inactive: bafetinib -0.023 | [1] 0.007 | nilotinib -0.094 | [2] -0.077 | dasatinib -0.237 | [3] -0.031 | [4] 0.012 | [5] -0.051 | tipifarnib 0.012 | mubritinib 0.038

NUMBL (UniProt Q9Y6R0)
inactive: bafetinib -0.002 | [1] 0.113 | nilotinib -0.001 | [2] -0.136 | dasatinib -0.029 | [3] 0.027 | [4] 0.041 | [5] 0.097 | tipifarnib 0.068 | mubritinib 0.28

NUDT9 (UniProt Q9BW91)
inactive: bafetinib 0.006 | [1] -0.031 | nilotinib 0.018 | [2] -0.016 | dasatinib -0.047 | [3] 0.031 | [4] -0.012 | [5] -0.014 | tipifarnib -0.014 | mubritinib 0.017

NT5C3B (UniProt Q969T7)
inactive: bafetinib -0.007 | [1] 0.01 | nilotinib 0.02 | [2] 0.126 | dasatinib -0.022 | [3] 0 | [4] 0.041 | [5] 0.208 | tipifarnib -0.043 | mubritinib 0.16

NTMT1 (UniProt Q9BV86)
inactive: bafetinib 0.009 | [1] 0.068 | nilotinib 0.056 | [2] 0 | dasatinib -0.036 | [3] 0.023 | [4] 0.073 | [5] 0.076 | tipifarnib 0.043 | mubritinib 0.138

NUDT15 (UniProt Q9NV35)
inactive: bafetinib -0.033 | [1] -0.094 | nilotinib 0.005 | [2] 0.014 | dasatinib -0.038 | [3] -0.03 | [4] 0.119 | [5] -0.013 | tipifarnib 0.023 | mubritinib 0.083

NSUN2 (UniProt Q08J23)
inactive: bafetinib -0.059 | [1] 0.056 | nilotinib -0.038 | [2] -0.271 | dasatinib -0.146 | [3] -0.222 | [4] -0.034 | [5] -0.053 | tipifarnib -0.033 | mubritinib -0.045

NSMCE3 (UniProt Q96MG7)
inactive: bafetinib 0.046 | [1] -0.051 | nilotinib -0.039 | [2] -0.019 | dasatinib 0.077 | [3] -0.035 | [4] -0.031 | [5] -0.008 | tipifarnib -0.125 | mubritinib 0.085

NUDCD3 (UniProt Q8IVD9)
inactive: bafetinib -0.047 | [1] 0.024 | nilotinib -0.128 | [2] -0.121 | dasatinib -0.078 | [3] 0.02 | [4] -0.02 | [5] -0.003 | tipifarnib -0.089 | mubritinib 0.067

NUP205 (UniProt Q92621)
inactive: bafetinib -0.052 | [1] 0 | nilotinib -0.042 | [2] -0.025 | dasatinib -0.133 | [3] -0.004 | [4] -0.005 | [5] -0.052 | tipifarnib -0.072 | mubritinib 0.017

NUCB2 (UniProt P80303)
inactive: bafetinib -0.024 | [1] -0.089 | nilotinib 0.017 | [2] 0.006 | dasatinib 0.085 | [3] -0.018 | [4] -0.008 | [5] -0.024 | tipifarnib 0.002 | mubritinib 0.007

NUP58 (UniProt Q9BVL2)
inactive: bafetinib -0.037 | [1] -0.03 | nilotinib -0.024 | [2] 0.005 | dasatinib 0.003 | [3] 0.024 | [4] 0.023 | [5] -0.018 | tipifarnib 0.031 | mubritinib 0.038

OTUD6B (UniProt Q8N6M0)
inactive: bafetinib -0.014 | [1] 0.105 | nilotinib -0.114 | [2] -0.067 | dasatinib -0.142 | [3] -0.031 | [4] 0.044 | [5] 0.067 | tipifarnib -0.039 | mubritinib -0.02

NUP153 (UniProt P49790)
inactive: bafetinib -0.088 | [1] -0.02 | nilotinib 0.032 | [2] -0.021 | dasatinib 0.042 | [3] -0.019 | [4] -0.022 | [5] -0.021 | tipifarnib 0.048 | mubritinib -0.006

P4HB (UniProt P07237)
inactive: bafetinib -0.045 | [1] -0.044 | nilotinib -0.02 | [2] 0.006 | dasatinib 0.049 | [3] -0.023 | [4] -0.011 | [5] 0.026 | tipifarnib 0.075 | mubritinib -0.009

NUDT12 (UniProt Q9BQG2)
inactive: bafetinib -0.002 | [1] -0.051 | nilotinib 0.038 | [2] -0.006 | dasatinib 0.004 | [3] 0.027 | [4] 0.019 | [5] 0.061 | tipifarnib -0.039 | mubritinib 0.108

PA2G4 (UniProt Q9UQ80)
inactive: bafetinib 0.094 | [1] 0.022 | nilotinib -0.018 | [2] 0.088 | dasatinib -0.046 | [3] 0.029 | [4] 0.062 | [5] -0.018 | tipifarnib -0.061 | mubritinib 0.038

PAAF1 (UniProt Q9BRP4)
inactive: bafetinib -0.011 | [1] -0.01 | nilotinib -0.084 | [2] 0.058 | dasatinib -0.051 | [3] -0.026 | [4] 0.018 | [5] 0.016 | tipifarnib -0.03 | mubritinib 0.017

NUP98 (UniProt P52948)
inactive: bafetinib -0.008 | [1] 0.018 | nilotinib -0.034 | [2] -0.062 | dasatinib -0.077 | [3] -0.044 | [4] -0.026 | [5] -0.075 | tipifarnib 0.005 | mubritinib 0

NSUN6 (UniProt Q8TEA1)
inactive: bafetinib -0.03 | [1] 0.029 | nilotinib 0.024 | [2] -0.038 | dasatinib -0.009 | [3] -0.045 | [4] 0.095 | [5] -0.045 | tipifarnib -0.034 | mubritinib 0.038

NUP188 (UniProt Q5SRE5)
inactive: bafetinib 0.043 | [1] 0.019 | nilotinib -0.06 | [2] -0.063 | dasatinib -0.125 | [3] 0.005 | [4] 0 | [5] -0.036 | tipifarnib -0.075 | mubritinib 0.037

OSBP (UniProt P22059)
inactive: bafetinib -0.017 | [1] 0.005 | nilotinib 0.123 | dasatinib -0.08 | [3] -0.067 | [4] -0.024 | [5] -0.024 | tipifarnib -0.085 | mubritinib 0.012
active: [2] -0.257

NSMCE4A (UniProt Q9NXX6)
active: mubritinib 0.552
inactive: bafetinib -0.145 | [1] -0.144 | nilotinib 0.189 | [2] -0.254 | dasatinib -0.051 | [3] 0.03 | [4] 0.025 | [5] -0.131 | tipifarnib 0.026

OXR1 (UniProt Q8N573)
inactive: bafetinib -0.098 | [1] -0.063 | nilotinib 0.079 | [2] -0.004 | dasatinib -0.034 | [3] -0.023 | [4] 0.081 | [5] 0.013 | tipifarnib -0.038 | mubritinib 0.05

NUP107 (UniProt P57740)
inactive: bafetinib -0.013 | nilotinib -0.027 | [2] -0.012 | dasatinib -0.12 | [3] -0.145 | [4] -0.077 | [5] -0.008 | tipifarnib -0.026 | mubritinib -0.036
active: [1] 0.716

NUS1 (UniProt Q96E22)
inactive: bafetinib 0.004 | [1] -0.032 | nilotinib 0.013 | [2] 0.061 | dasatinib 0.019 | [3] -0.003 | [4] 0.024 | [5] -0.031 | tipifarnib 0.016 | mubritinib -0.005

NUP50 (UniProt Q9UKX7)
inactive: bafetinib -0.037 | [1] -0.02 | nilotinib 0.004 | [2] -0.02 | dasatinib -0.03 | [3] -0.02 | [4] 0.019 | [5] 0.033 | tipifarnib 0.024 | mubritinib 0.044

P4HA1 isoform 2 (UniProt P13674)
inactive: bafetinib 0.009 | [1] -0.002 | nilotinib -0.005 | [2] 0.026 | dasatinib -0.122 | [3] -0.047 | [4] -0.081 | [5] 0.032 | tipifarnib 0.068 | mubritinib -0.072

Two successive entries out of the list so far:
NUDCD3 (UniProt Q8IVD9)
inactive: bafetinib -0.047 | [1] 0.024 | nilotinib -0.128 | [2] -0.121 | dasatinib -0.078 | [3] 0.02 | [4] -0.02 | [5] -0.003 | tipifarnib -0.089 | mubritinib 0.067

NUP205 (UniProt Q92621)
inactive: bafetinib -0.052 | [1] 0 | nilotinib -0.042 | [2] -0.025 | dasatinib -0.133 | [3] -0.004 | [4] -0.005 | [5] -0.052 | tipifarnib -0.072 | mubritinib 0.017

Reference: the supplement of paper PMC10849652
